AC50 data for 62 compounds are collected here from PubChem BioAssay AID445 (National Center for Advancing Translational Sciences (NCATS), 2006).

The list shows a part of the results. Shown are side measurements of this screen, not its main read-out; they come without a call. Compounds called inactive in the main read-out are mostly missing here. Potencies come from curve fits of mixed quality, noted in brackets.

The nature of the test: IkB Signaling. To be noted: ABC-DLBCL IkBa-CBG/CBR dual luciferase ratio (green luciferase fused to IkBa over red control in OCI-Ly3 lymphoma cells), 4 h; measured here: control luc red channel unless noted. The procedure, abridged: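 Curves were fitted separately to fusion (green), unfused (red) and ratio luminescence, then classed by r2, magnitude and activity. Cells: OCI-Ly3, 4 h compound plus doxycycline at 37C; 10 uM MG-132 defined full response.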
What is called AC50 is the midpoint of the concentration-response curve, whichever way the signal moves. On to `Cc1cccc(OCCCCc2c(C)n[nH]c2C)c1C`, for which the AC50 is 39.8 µM [rising, single point] [measured here: IkB-luc green channel].

In the case of `Cc1cc(OCC(=O)Nc2ccc(C(=O)OC3CCCCC3)cc2)ccc1Cl`, the AC50 is 25.1 µM [rising, partial curve, poor fit].

For `Fc1ccc(-c2nnn3c2nc(NCc2ccccc2)c2ccccc23)cc1`, the AC50 was 0.1 µM [falling, full curve].

Consider `Cc1ccccc1N(CC(=O)Nc1ccccc1C(=O)O)S(C)(=O)=O`, for which the AC50 was 1.58 µM [falling, full curve].

In the case of `O=C1CN(C(=O)c2c(F)cccc2Cl)C(c2ccc(F)cc2)c2cc(Br)ccc2N1` (configuration not stated), the AC50 is 20 µM [falling, partial curve].

For `CN(C(=O)CSc1nc2ccc(NC(=O)c3cccs3)cc2s1)c1ccccc1`, the AC50 was 10 µM [falling, partial curve].

With `Cc1c(N=c2c(=O)c3ccccc3c2=O)c(=O)n(-c2ccccc2)n1C`, the AC50 was 39.8 µM [rising, single point] [measured here: IkB-luc green channel].

Turning to `COC(=O)c1cccc(CN2C(=O)SC(Nc3ccccc3C)C2=O)c1` (configuration not stated), the AC50 is 12.6 µM [falling, single point].

Regarding `CCc1ccc(CNC(=O)C2CCN(C(=O)c3ccc(-n4c(C)cc5ccccc54)s3)CC2)cc1`, the AC50 was 15.8 µM [falling, partial curve].

`CC(C)C[C@H](NC(=O)OC(C)(C)C)c1nnc(SCC(=O)Nc2ccc(Br)cc2)o1`: the AC50 was 12.6 µM [falling, partial curve].

As for `Cc1ccc(NC(=O)C2CCCN(S(=O)(=O)c3ccc4c(c3)CCCC(=O)N4)C2)cc1N(C)C` (configuration not stated), the AC50 was 12.6 µM [falling, partial curve].

Regarding `CCCn1c(-c2ccc(OC)cc2)nc2ccccc21`, the AC50 is 12.6 µM [falling, partial curve].

Take `COc1cccc(NC(=O)c2ccccc2-c2nc(-c3ccc(Cl)cc3)no2)c1`: the half-maximal activity concentration (AC50) was 3.98 µM [falling, full curve, poor fit].

Regarding `Cc1ccc(-c2ccc(CCC(=O)O)n2-c2ccc(C)c(Cl)c2)cc1`, the AC50 is 15.8 µM [falling, partial curve].

For the compound `O=C1CCSC2(C(=O)N(Cc3ccccc3)c3ccccc32)N1c1ccccc1` (configuration not stated), the AC50 is 12.6 µM [falling, partial curve].

On to `CC(=O)N1c2ccc(S(=O)(=O)NCC3CCC(C(=O)Nc4cccc(C)c4)CC3)cc2CC1C` (configuration not stated), for which the AC50 is 25.1 µM [falling, single point].

Turning to `CCc1ccc2nc(N3CCC(C(=O)NCCC(C)C)CC3)sc2c1`, the AC50 was 15.8 µM [falling, partial curve].

In the case of `CCN(Cc1ccccc1)S(=O)(=O)c1ccc(N2CCCCS2(=O)=O)cc1`, the AC50 is 31.6 µM [falling, single point].

Regarding `COc1ccc(-c2nnc(CSc3nc4ccccc4c(=O)n3CC(C)C)o2)cc1OC`, the AC50 is 20 µM [falling, partial curve].

On to `Nc1nnc(-c2ccco2)s1`, for which the AC50 is 15.8 µM [rising, partial curve].

`Cc1ccc(NC(=O)C(=O)NCC(c2ccc3c(c2)OCO3)N2CCN(C)CC2)cc1C` (configuration not stated): the AC50 was 31.6 µM [falling, partial curve, poor fit].

As for `CCOC(=O)c1c(-c2cccs2)csc1NC(=O)COC(=O)c1c(C)noc1C`, the AC50 is 10 µM [falling, partial curve].

For `Cc1ccccc1Cn1c(C)c(CNCCCc2ccccc2)c(C(=O)O)c1C`, the AC50 was 20 µM [falling, single point].

`Cc1ccccc1Nc1c(-c2c[nH]c3ccccc23)nc2cccc(C)n12`: the AC50 is 0.02 µM [falling, full curve].

On to `Cc1ccc(NC(=O)CCc2nc3cccnc3n2-c2ccccc2)cc1Cl`, for which the AC50 was 15.8 µM [falling, partial curve].

`O=c1c2sc3ccccc3c2n(Cc2ccc(Cl)cc2)c(=O)n1Cc1ccco1`: the AC50 was 1.26 µM [falling, full curve, poor fit].

Take `Cc1cccc(NC(=O)Cn2cnc3sc(C)c(S(=O)(=O)N4CCC(C)CC4)c3c2=O)n1`: the AC50 was 0.794 µM [falling, full curve].

As for `Cc1ccc(N(Cc2cccs2)C(=O)c2ccccc2[N+](=O)[O-])cc1`, the concentration at half-maximal activity (AC50) was 31.6 µM [falling, single point].

On to `Fc1ccc(-c2cc3nc(-c4ccccc4)cc(N4CCN(CCN5CCOCC5)CC4)n3n2)cc1`, for which the AC50 is 1 µM [falling, full curve].

Turning to `Clc1cccc(-n2ncc3c(NC4CCCCCC4)ncnc32)c1`, the AC50 is 12.6 µM [falling, partial curve].

In the case of `COc1ccc(CCNC(=O)CCCCn2c(=O)c3ccccc3n(Cc3ccccc3)c2=O)cc1OC`, the AC50 was 39.8 µM [falling, single point].

On to `O=C(NCc1ccccc1)c1cccc(OCC(=O)N2CCN(C(=O)c3ccco3)CC2)c1`, for which the AC50 was 20 µM [falling, partial curve].

Turning to `CCOC(=O)c1ccc(NC(=O)CSc2ncc(S(=O)(=O)c3ccc(C)c(Cl)c3)c(=O)[nH]2)cc1`, the AC50 was 20 µM [falling, partial curve].

Turning to `CCCCN(C)c1nnc(NC(=O)Nc2ccc(Br)c(C)c2)s1`, the AC50 was 20 µM [falling, single point].

With `CCOc1ccc(NC(=O)Cn2cc(C(=O)c3ccc(C)cc3)c(=O)c3cc4c(cc32)OCO4)cc1`, the AC50 is 10 µM [falling, partial curve].

With `Brc1cccc(-c2nnn3c2nc(N2CCCCC2)c2ccccc23)c1`, the half-maximal activity concentration (AC50) is 2 µM [falling, full curve].

`CCn1c2c(c(=O)n3ncc(C(=O)Nc4ccc(Cl)cc4C)c13)CN(Cc1ccc(OC)cc1)CC2`: the AC50 was 15.8 µM [falling, partial curve].

On to `Cc1ccc2nc3c(c(Nc4ccc(C)c(C)c4)c2c1)CCC3`, for which the AC50 is 20 µM [falling, partial curve].

As to `O=C(CNS(=O)(=O)c1cccs1)N1CCN(c2ccccc2F)CC1`, the AC50 is 1 µM [falling, partial curve].

For the compound `CCCn1c(=O)c2sccc2n2c(CCCC(=O)NC3CCCCC3)nnc12`, the AC50 was 31.6 µM [falling, single point].

On to `COCCCNC(=O)c1ccc(-n2c(-c3ccccc3)cc3c2CCCCC3)cc1`, for which the AC50 is 12.6 µM [falling, partial curve].

`CC(C)N(Cc1cc2ccccc2[nH]c1=O)C(=O)C1CCCCC1`: the AC50 was 7.94 µM [falling, partial curve].

In the case of `CCc1nonc1NC(=O)c1oc2ccc(Cl)cc2c1C`, the AC50 is 0.794 µM [rising, full curve].

As for `CC1=C(C(=O)OC2CCCCCC2)C(c2ccc(Cl)cc2Cl)CC(=O)N1` (configuration not stated), the AC50 was 25.1 µM [falling, single point].

Take `Cc1cc(C)nc(N2CCCC(C(=O)Nc3nc4ccc(S(C)(=O)=O)cc4s3)C2)n1` (configuration not stated): the AC50 is 20 µM [falling, partial curve].

For the compound `COc1ccc(CNC(=O)CC2Oc3ccc(C)cc3NC2=O)cc1` (configuration not stated), the AC50 was 3.16 µM [falling, partial curve, poor fit].

For the compound `COC(=O)c1cc2oc3ccccc3c2n1CC(=O)Nc1ccc(F)c(Cl)c1`, the AC50 was 0.1 µM [falling, full curve].

Turning to `CCOc1ccc(CCNC(=O)c2nn(C)c3c2CSc2ccc(C)cc2-3)cc1OCC`, the AC50 was 5.01 µM [falling, full curve].

As to `Cc1cccc(Cn2c(CN3CCCC(C)C3)nc3c2c(=O)n(C)c(=O)n3C)c1` (configuration not stated), the AC50 was 2 µM [falling, partial curve].

As for `CCC(=O)Nc1ccc(CC)cc1-c1nc2ccccc2n(CC(=O)c2ccc(OC)cc2)c1=O`, the AC50 is 15.8 µM [falling, partial curve].

As for `CC1CCCCN1C(=O)CN1CCSc2ccccc21` (configuration not stated), the AC50 is 1.58 µM [falling, full curve].

`CCc1nonc1NC(=O)c1oc2cc(C)c(C)cc2c1C`: the AC50 was 0.251 µM [rising, full curve].

Regarding `Cc1c(Cl)cccc1NC(=O)c1oc2ccc(S(=O)(=O)N3CCC4(CC3)OCCO4)cc2c1C`, the AC50 is 20 µM [falling, partial curve].

Turning to `CCc1cccc(-n2c(=O)c3cccnc3n2CC(=O)Nc2ccc(OC)c(Cl)c2)c1`, the AC50 is 0.631 µM [rising, full curve, poor fit].

Regarding `COc1ccc(C(=O)Oc2ccc(C(c3c(C)[nH][nH]c3=O)c3c(C)[nH][nH]c3=O)cc2)cc1`, the half-maximal activity concentration (AC50) is 31.6 µM [falling, partial curve, poor fit].

On to `COc1cccc(-n2c(SCC(N)=O)nc3c(oc4ccccc43)c2=O)c1`, for which the AC50 is 3.16 µM [rising, partial curve, poor fit].

On to `O=C(CSCc1ccc(Cl)cc1)NCC1CCCO1` (configuration not stated), for which the AC50 is 1.26 µM [rising, partial curve] [measured here: IkB-luc green channel].

For `COc1cc(C(=O)N2CCN(c3cccc(C)c3C)CC2)cc(OC)c1OC`, the AC50 is 3.16 µM [rising, partial curve] [measured here: IkB-luc green channel].

For `O=C1NC(c2ccccc2)C(C(=O)c2cccs2)=C1O` (configuration not stated), the AC50 is 12.6 µM [falling, partial curve].

Regarding `O=S(=O)(NCCc1csc2nc(-c3ccccc3)nn12)c1ccc(Oc2ccccc2)cc1`, the AC50 was 15.8 µM [falling, partial curve].

With `Cc1ccc(Cl)cc1N1CCN(C(=O)c2noc3c2CCCC3)CC1`, the AC50 is 15.8 µM [falling, partial curve].

`COc1ccc(Cl)cc1NC(=O)Cn1nnc2sc(-c3ccccc3)cc2c1=O`: the AC50 was 10 µM [falling, partial curve].
